Results taken from PubChem BioAssay AID1347076 (National Center for Advancing Translational Sciences (NCATS), 2019).
Hit rate of the full screen: of about 400,000 compounds, about 13,000 (3.2%) were called active. The inconclusive results got no clear call from the source; some entries with a clear call stand among them for comparison. Calls follow the shape of the dose curve; as a rule, active = well fitted cell-killing curve with a large enough effect; inconclusive = small, poorly fitted or top-dose-only effect, or effect the other way; inactive = flat fitted curve, though single readings scatter. Potencies beside an inconclusive call are fits to weak or partial responses and may not hold up.

Experiment: qHTS assay for MDR1-selective chemotherapeutics: Primary screen using the drug-selected MDR subline cells KB-V1; also: nearly all actives have a fitted effect of over 60% in size
Conditions: KB-V1 MDR cells viability, CellTiter-Glo, 72 h; series mostly up to 46.1 µM
How it was run: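 Cytotoxicity toward P-gp-expressing KB-V1 cells was determined as loss of CellTiter-Glo luminescence after 72 h at 37 degrees C. Compounds were tested in quantitative HTS format across a concentration range, with curves fitted to normalized data.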
Potency is read from the fitted curve at half-maximal effect.

SMILES	Potency
CCOC(=O)C1(CCOc2ccccc2)CCN(C2Cc3ccccc3C2)CC1	inconclusive: 10.3 µM [cytotoxic, partial curve]
COC(=O)C1=C(c2cccc(OCc3ccccc3)c2)C[C@@H]2CC[C@H]1N2C(=O)NCc1ccc(F)cc1	inconclusive: 23.1 µM [cytotoxic, single point]
COc1ccc2c(c1)c(C(=O)C(C)N1CCCCC1)c(C)n2C (centres undefined)	inconclusive: 23.1 µM [rising, partial curve, poor fit]
CC(=NCc1cccnc1)c1c(O)n(C2CCCCC2)c(=O)[nH]c1=O	active: 18.4 µM
Cc1nc2ccccc2c(=O)n1-c1c(Cl)cccc1Cl	inconclusive: 18.4 µM [cytotoxic, single point]
C[N+](C)(C)CC1CCCC(C[N+](C)(C)C)C1=O (centres undefined)	inconclusive: 29.1 µM [cytotoxic, single point]
CCCCn1nnnc1C(c1cccc(OC)c1OC)N1CCC2(CC1)C(=O)NCN2c1ccccc1 (centres undefined)	inconclusive: 18.4 µM [cytotoxic, single point]
Cc1cc(Cc2c(O)[nH]c(=S)[nH]c2=O)ccc1OC(C)C	inactive
COc1cc2c(c(OC)c1OC)-c1ccc(O)cc1C(NC(C)=O)CC2 (centres undefined)	inconclusive: 23.1 µM [cytotoxic, partial curve, poor fit]
Nc1c(C(=O)NCCN2CCOCC2)c2nc3ccccc3nc2n1Cc1ccccc1	inconclusive: 9.2 µM [cytotoxic, partial curve]
CCCNS(=O)(=O)c1ccc(OCC(=O)N2CCN(Cc3ccc4c(c3)OCO4)CC2)c(C)c1	inactive
COc1ccc(F)cc1C(=O)C1CCCN(Cc2cnc(C)s2)C1 (centres undefined)	inconclusive: 3.66 µM [cytotoxic, full curve]
Cc1ccc(-n2c(/C=C\c3ccc(F)c(F)c3)nc3ccccc3c2=O)c(C)c1	active: 4.11 µM
Cc1ccc(CN2CC3CC(C2)c2cccc(=O)n2C3)cc1 (centres undefined)	inconclusive: 23.1 µM [cytotoxic, partial curve, poor fit]
O=C1NC(=S)NC(=O)C1Cc1ccccc1	inactive
COc1ccc2[nH]c(C)c(CCNCc3cn(C)c4ccccc34)c2c1	inconclusive: 20.6 µM [cytotoxic, partial curve, poor fit]
Cc1nc2c(=O)n(C)c(=O)nc-2n(C)n1	active: 6.51 µM
Brc1ccc(CN2CCNCC2)s1	inconclusive: 14.6 µM [cytotoxic, single point]
CCC(=NCCCN(CC)CC)c1c(O)n(-c2ccccc2)c(=O)[nH]c1=O	inactive

Of the compounds above, these contain fluorine:
SMILES	Potency
COC(=O)C1=C(c2cccc(OCc3ccccc3)c2)C[C@@H]2CC[C@H]1N2C(=O)NCc1ccc(F)cc1	inconclusive: 23.1 µM [cytotoxic, single point]
COc1ccc(F)cc1C(=O)C1CCCN(Cc2cnc(C)s2)C1 (centres undefined)	inconclusive: 3.66 µM [cytotoxic, full curve]
Cc1ccc(-n2c(/C=C\c3ccc(F)c(F)c3)nc3ccccc3c2=O)c(C)c1	active: 4.11 µM
